## Primary screen of a compound library

From ChEMBL document CHEMBL3988442, “University of Dundee, Small-Polar-MMV Screening Library” (2021).

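Viability assay of Plasmodium falciparum sporozoites; the read-out is not stated. The concentration is filed as 10 mM, unlikely as a test dose, so the dose is not known. Direction is inferred from retests: higher values go with lower viability. Strong results were mostly tested again. Of about 34,000 compounds tested this way, about 280 (0.84%) reached 50% or more in at least one test.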

Values are the deposited “Percent Effect”, in %.
The record does not define 0% and 100%; most values in the screen are far below 50% and negative numbers occur (in some assays of this library far below -100).
Compounds were drawn at random from those tested, without regard to their results.
Two or more numbers in one place are separate tests of the same structure; such repeats can differ widely.

Compound,effect
CC(C)c1nn(C)c(N2CCOCC2)c1CNC(C)c1ccco1 (centres unmarked),2.603
OC(COCc1ccccc1)CN1CCC(c2ccn[nH]2)CC1 (centres unmarked),8.709
COCC(=O)NC(C)Cc1cccc(Cl)c1 (centres unmarked),-3.145
Cc1nc(CC(=O)N2CCC(Nc3cccnn3)CC2)cs1,7.348
O=C(C1CCOCC1)N1CC[C@@H](O)[C@@H]1Cc1ccncc1,12.27
CS(=O)(=O)NCc1ncn2c1CN(C(=O)C1CCCO1)CCC2 (centres unmarked),-0.3376
CC1(C(=O)N2CCOCC2)CNCCO1.Cl (centres unmarked),-14.24
O=C(c1ccnnc1)N1CCn2cc(CN3CCCCC3)nc2C1,0.945
c1cnc(N2CCc3onc(CN4CCOCC4)c3C2)cn1,7.452
O=C(O)C(F)(F)F.[H][C@@]12CN(C(=O)c3ccoc3C)C[C@]1([H])OCCN2c1ncccn1,8.094
CN(CC(=O)N1CCc2[nH]c3ccc(F)cc3c2C1)CC1OCCO1,-3.022
CN(Cc1ncc[nH]1)S(=O)(=O)c1cccc(C(=O)N2CCOCC2)c1,-10.98
CCn1cnnc1C1CCN(C(=O)c2cc(F)ccc2OC)CC1,17.37
O=C(O)C(F)(F)F.[H][C@]12CCN(C(=O)NCc3ccccc3)C[C@@]1([H])OCCN(C(C)C)C2,8.185
CS(=O)(=O)N1CCC(C(=O)NC(Cc2ccsc2)c2nccs2)CC1 (centres unmarked),-1.777
CC1c2ncc(Cn3cncn3)n2CCN1CC1CCOCC1.O=C(O)C(F)(F)F (centres unmarked),4.722
N#Cc1ccc(OCCCN2CCOC(Cn3cncn3)C2)cc1 (centres unmarked),11.83
[H][C@@]12CN(C(=O)c3ccsc3)C[C@]1([H])C(=O)N(Cc1cccc(C)c1)C2,-14.83
CS(=O)(=O)NCc1nnc2n1CCN(Cc1nccs1)C2,8.162
CCn1cnnc1CNC(=O)N1CCN(c2cccc(OC)c2)CC1,-6.214
O=C(O)C(F)(F)F.[H][C@@]12CCN(C(C)C)C[C@]1([H])CN(C(=O)c1cccc(C)c1)C2,10.44
Cc1csc(N2CCN(CC(=O)Nc3c(C)n[nH]c3C)CC2C)n1 (centres unmarked),18.3
Cc1cc(C)n(C2CCCN(C(=O)CCCc3ccccn3)C2)n1 (centres unmarked),-9.303
Cc1nc(C)n(CC2CCCN2Cc2nc(-c3ccoc3)no2)n1 (centres unmarked),12.55 & -19.47 & -7.396
COCc1cc(N(Cc2ccsc2)C2CC2)n2ncnc2n1,2.176
COCC1CN(C(=O)Nc2cc(C(F)(F)F)ccc2F)CCO1 (centres unmarked),-14.63
Cc1nccn1CCNC(=O)C1(C)CC(c2ccccc2)=NO1 (centres unmarked),1.227
CNc1cc(C)nc(C2COCCN2CCc2ccccc2)n1 (centres unmarked),-3.779
CCOc1ncccc1NC(=O)NC1CCN(S(C)(=O)=O)CC1,1.067
O=C(NCCNc1ncccn1)NCCSC(F)(F)F,5.598
COCC(=O)N1CCCC2(CCN(c3ccccc3)C2=O)C1 (centres unmarked),-7.899
Cc1cnn(CC2CCCCN2Cc2c(C)noc2C)c1 (centres unmarked),4.114
[H][C@@]12CCN(Cc3ccncc3)C[C@@]1([H])O[C@@H](C(=O)N(C)C)C2,-3.893
c1ccc(-c2nc(SCc3nnc(C4CC4)o3)n[nH]2)nc1,-9.769
CCc1nc(CN(C)C(=O)C2CC(=O)N(c3cccc(O)c3)C2)no1 (centres unmarked),-8.158
O=C(CCn1c(C(F)(F)F)cc2cccnc21)NC1CCCC1,11.81
[H][C@@]12CS(=O)(=O)C[C@]1([H])N(Cc1nc3ccccc3[nH]1)CCN2C,-4.844
O=C(O)C(F)(F)F.O=C(O)C(F)(F)F.O=C(O)C(F)(F)F.[H][C@@]12CCN(Cc3cccnc3)[C@@]1([H])CCN2Cc1ccc2c(c1)OCO2,5.475
COCC(=O)N1CCCC1(C(=O)N(C)C)c1cnccn1 (centres unmarked),-3.401
c1ccc2nc(N3CCCCC3)c(NCc3nnc4n3CCC4)nc2c1,-7.456
Cc1nc(C2CCCN2C(=O)Cc2cccc(F)c2)nc(O)c1C (centres unmarked),13.2
[H][C@]12CC[C@@H](Nc3cccnn3)[C@@]1([H])CN(Cc1c[nH]c3ccccc13)C2,7.229
Cc1ccc(C)c(C(C(=O)O)N2CCCN(Cc3ccccn3)CC2)c1 (centres unmarked),-4.47
CCC(=O)N1CCC2(COCc3cnc(N4CCOCC4)nc32)C1 (centres unmarked),0.7732
COc1cc(CCC(=O)NCC2CCCN2C)ccc1OCC(F)(F)F (centres unmarked),0.8965
Cc1ccc(N(CC(=O)N2CCCCC2)C(=O)C2CCCO2)cc1 (centres unmarked),-4.737
O=C(C1=CCCCC1)N1CCC2(CC1)COC(COc1ccccn1)C2.O=C(O)C(F)(F)F (centres unmarked),12.64
CSCc1nc(CNC(=O)c2cnn(C(C)C)c2)cs1,3.73
COc1ccc2[nH]cc(C(=O)CNc3nc(C)cs3)c2c1.I,41.31 & 21.88
[H][C@@]12CCN(Cc3nc(C)cs3)C[C@@]1([H])O[C@@H](c1nnc(C)[nH]1)C2,-5.706

Once more, the final 5:

Cc1ccc(N(CC(=O)N2CCCCC2)C(=O)C2CCCO2)cc1 (centres unmarked) gave -4.737%.
O=C(C1=CCCCC1)N1CCC2(CC1)COC(COc1ccccn1)C2.O=C(O)C(F)(F)F (centres unmarked) gave 12.64%.
CSCc1nc(CNC(=O)c2cnn(C(C)C)c2)cs1 gave 3.73%.
COc1ccc2[nH]cc(C(=O)CNc3nc(C)cs3)c2c1.I gave 41.31% & 21.88%.
[H][C@@]12CCN(Cc3nc(C)cs3)C[C@@]1([H])O[C@@H](c1nnc(C)[nH]1)C2 gave -5.706%.